# “And” between values parts separate entries of the source, which are not always exact repeats. Identical values can stand only once. The whole screen tested about 360,000 compounds, of which about 7,500 (2.1%) were called active. Inconclusive results, whose numbers are uncertain, are shown with a selection of clear calls. The call rests on the fitted dose curve; in most records, active means well fitted inhibition curve with a large enough effect; inconclusive means small, poorly fitted or top-dose-only effect, or effect the other way; inactive means flat fitted curve, though single readings scatter. Potencies beside an inconclusive call are fits to weak or partial responses and may not hold up. Where a structure was tested more than once in an assay, its records may differ in their call.
# Experiment: Nrf2 qHTS screen for inhibitors; further: nearly all actives have a fitted effect of over 60% in size
# Settings: A549 ARE-Fluc reporter, luciferase luminescence, 18-24 h; activity change, negative = inhibition: at 46 µM (top of the series)
# How it was run: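 Nrf2 activity is the BugLite luminescence, read 15 min after reagent at room temperature, following CellTiter-Fluor cytotoxicity readout (30 min, 37C). Compound titrations were applied for 18-24 h to 5000 A549 ARE_Fluc cells/well in 5% FBS OPTI-MEM.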
# On the % scale 0 is the no-effect control and ±100 the full control effect; potency means the concentration at half of the fitted maximal effect.
Compound,Potency,"activity change, negative = inhibition"
Cc1nc(NC(C)c2ccccc2)c2c3c(sc2n1)CCC3 (configuration not stated),"inconclusive: 32.6 µM [falling, single point]",
COc1cccc(-c2csc3ncnc(Sc4nnnn4C)c23)c1,inactive and active: 25.9 µM,
NC(=O)c1nsc(C(=O)N(CC(=O)NC2CCCCC2)Cc2ccc(F)cc2)c1N,"inconclusive: 7.31 µM [falling, single point]",
O=C(CCCN1C(=O)/C(=C/c2cccc(Br)c2)SC1=S)Nc1ccccn1,"inconclusive: 29.1 µM [falling, single point]",
CCOC(=O)N1CCc2c(sc3c2c(=O)n(Cc2ccccc2)c(=O)n3CC(=O)Nc2ccc(F)cc2)C1,"inconclusive: 10.3 µM [falling, partial curve, poor fit]",
c1nc(COc2nsnc2N2CCOCC2)cs1,"inconclusive: 25.9 µM [falling, single point]",
COc1cc(C(C)=O)ccc1OCC(=O)Nc1cc(C)on1,"inconclusive: 3.26 µM [activator, single point]",
CCOC(=O)Nc1ccc(S(=O)(=O)N2CCOCC2)cc1,inactive,
O=C(NOCc1ccccc1)c1cccc([N+](=O)[O-])c1,inactive,
O=C(COc1ccccc1Cl)NC(=O)NC1CCCCC1,"inconclusive: 32.6 µM [activator, partial curve, poor fit]",
Nc1ccc2nc(-c3cccc(-c4nc5ccc(N)cc5[nH]4)c3)[nH]c2c1,"inconclusive: 32.6 µM [falling, single point]",
CSc1cccc(NC(=S)NC(=O)CCc2ccccc2)c1,inactive,
Cn1ccc(C(=O)N/N=C/c2ccccc2[N+](=O)[O-])n1,"inconclusive: 29.1 µM [activator, single point]",
Cc1nnc(SCC(=O)Nc2ccc(N3CCOCC3)cc2)n1-c1ccccc1,inactive,
O=C1CCC(=O)N1c1ccc(-c2nc3ccccc3s2)cc1,"inconclusive: 2.59 µM [activator, partial curve]",
CC1CCN(S(=O)(=O)c2ccc(NC(=O)CN3CCCC(C)C3)cc2)CC1 (configuration not stated),"inconclusive: 16.4 µM [falling, partial curve, poor fit]",
CN(c1ccc(F)cc1)S(=O)(=O)N1CCCC(C(=O)NCc2ccccc2Cl)C1 (configuration not stated),"inconclusive: 29.1 µM [falling, single point]",
COCCCNc1ncnc2ccc(C)cc12,"inconclusive: 14.6 µM [falling, partial curve, poor fit]",
CC1CN(C(=O)CCC(=O)N2CCN(c3cccc(C(F)(F)F)c3)CC2)c2ccccc2O1 (configuration not stated),"inconclusive: 29.1 µM [falling, single point]",
Cc1ccc2c(c1)c1c(c(=O)n(Cc3ccccc3)c(=O)n1Cc1ccccc1F)n2C,inactive,
Cc1ccc(S(=O)(=O)Nc2nc3ccccc3nc2Nc2cccc(S(=O)(=O)N3CCCC3)c2)cc1,active: 9.2 µM,
Cc1c(C(=O)OC(C)C)sc(NC(=O)C2CCCO2)c1C(=O)OC(C)C (configuration not stated),"inconclusive: 16.4 µM [falling, single point]",
CCOC(=O)c1c(NC(=O)COC(=O)Cc2n[nH]c(=O)c3ccccc23)sc(C(=O)NC)c1C,"inconclusive: 8.2 µM [falling, partial curve]",

Compound,Potency,"activity change, negative = inhibition"
COc1ccccc1NC(=S)N1CCN(c2cccc(C)c2C)CC1,"inconclusive: 18.4 µM [falling, single point]",
O=C(Cn1cnc2ccccc2c1=O)Nc1cccc(S(=O)(=O)N2CCCCC2)c1,"inconclusive: 23.1 µM [falling, single point]",
CCC(C)NC(=O)C1CC(c2ccc(OC)cc2)=NO1 (configuration not stated),"inconclusive: 6.51 µM [activator, partial curve, poor fit]",
Cc1cc(C)c(OCC(=O)N(Cc2ccc(N(C)C)cc2)Cc2ccco2)c(C)c1,"inconclusive: 29.1 µM [falling, single point]",
CC(C)CSc1n[nH]c(=S)s1,inactive,
COc1ccc(-c2nnc3n2N=C(c2ccc(OC)c(OC)c2)CS3)cc1,"inconclusive: 11.6 µM [falling, partial curve]",
C[C@@H]1C(=O)N(S(=O)(=O)c2ccc([N+](=O)[O-])cc2)[C@H]1c1ccccc1,inactive,
O=C(O)C1CCN(c2ccc([N+](=O)[O-])cc2[N+](=O)[O-])CC1,"inconclusive: 0.731 µM [activator, partial curve, poor fit]",
COc1ccc2oc(-c3ccco3)cc(=O)c2c1,"inconclusive: 11.6 µM [activator, partial curve, poor fit]",
CC1(C)Oc2ccc3ccc(=O)oc3c2/C(=C/NNC(N)=S)C1=O,"inconclusive: 32.6 µM [activator, single point]",
CCc1cc(=O)[nH]c(SCC(=O)N2CCC(Cc3ccccc3)CC2)n1,"inconclusive: 14.6 µM [activator, partial curve, poor fit]",
COc1ccc(C(=O)N[C@H](C(=O)Nc2ccc(OC)nc2)C(C)C)cc1,inactive,
Cc1nc(NC(=O)c2cc3ccccc3o2)sc1C,"inconclusive: 0.92 µM [activator, partial curve]",
O=C1C=CC(=O)N1c1ccccc1N1C(=O)C=CC1=O,"inconclusive: 29.1 µM [falling, single point]",
CC(=O)Nc1ccc(S(=O)(=O)Oc2cccc(N3C(=O)C4CC=CCC4C3=O)c2)cc1 (configuration not stated),"inconclusive: 20.6 µM [falling, partial curve, poor fit]",
CC1CC(C)CN(CC(=O)N2CCCc3c2c(=O)oc2ccc(OCc4ccccc4)cc32)C1 (configuration not stated),"inconclusive: 29.1 µM [falling, single point]",
CN(C)c1cccc(C(=O)Nc2cccc(S(=O)(=O)NC3=NCCC3)c2)c1,"inconclusive: 3.26 µM [activator, partial curve, poor fit]",
Cc1ccc(S(=O)(=O)ON2C(=O)c3ccccc3C2=O)c(C)c1,inactive,
Cc1ccc(NC(=O)CCc2c(C)nn(-c3ccc(N4CCCCC4)nn3)c2C)cc1,"inconclusive: 23.1 µM [activator, single point]",
O=C(Cc1ccc(Cl)cc1)Nc1ccncc1,active: 5.8 µM,
CC(=O)Nc1ccc(S(=O)(=O)N(C)c2ccc(OCC(=O)Nc3ccccc3C(C)=O)cc2)cc1,"inconclusive: 16.4 µM [falling, single point]",
O=C(COC(=O)c1cc(-c2ccco2)nc2ccccc12)NCc1ccccc1,inactive,
Cc1cc(C(=O)CN2C(=O)NC3(CCCCCC3)C2=O)c(C)n1C,"inconclusive: 23.1 µM [activator, partial curve, poor fit]",

Compound,Potency,"activity change, negative = inhibition"
N#Cc1ccsc1NC(=O)c1ccccn1,"inconclusive: 16.4 µM [activator, single point]",
O=C(O)/C=C/C(=O)Nc1ccccc1C(=O)Nc1ccccc1,inactive,
COc1ccc(Cl)cc1C(=O)O/N=C(\N)c1ccncc1,"inconclusive: 23.1 µM [activator, single point]",
O=S1(=O)c2ccccc2N(Cc2ccccc2F)c2ccccc21,"inconclusive: 5.17 µM [activator, partial curve, poor fit]",
CCCNC(=O)NC(=O)CSc1nnc(C)n1N,,inconclusive: 36.2% [activator]
CCc1ccc(-c2cc(C(=O)NN3CCOCC3)c3ccccc3n2)cc1,"inconclusive: 16.4 µM [activator, single point]",
Cc1ccc(-n2nnnc2SCC(=O)Nc2ccccc2N2CCCCC2)cc1C,"inconclusive: 29.1 µM [falling, single point]",
CCCOc1ccc(/C=N/Nc2cc(N3CCOCC3)ncn2)c(O)c1,inactive,
COc1ccc(CNCCCNCc2ccc(OC)c(OC)c2)cc1OC,inactive,
COc1ccccc1CN(C)C(=O)c1ccc(COc2ccccc2)cc1,"inconclusive: 29.1 µM [falling, single point]",
Cc1nn(Cc2c(F)c(F)c(F)c(F)c2F)c(C)c1NC(=O)c1nn(C)c(C)c1Br,inactive,
COc1ccc(-c2nc3ccccc3o2)cc1NC(=O)Cc1ccc(Cl)cc1,inactive,
COc1ccc(/C=C2\SC(=S)N(CCC(=O)Nc3ccc(C(=O)O)cc3)C2=O)cc1,"inconclusive: 3.26 µM [activator, partial curve, poor fit]",
Cc1ccc(OCC(=O)N/N=C\c2c(C)[nH]n(-c3ccccc3)c2=O)c([N+](=O)[O-])c1,"inconclusive: 29.1 µM [falling, single point]",
O=C(COc1ccccc1Cl)NCCNC(=O)c1ccncc1,"inconclusive: 8.2 µM [activator, partial curve, poor fit]",
CC[n+]1c(/C=C/N(C)c2ccccc2)n(-c2ccccc2)c2ccc(-c3nc4ccccc4s3)cc21,"inconclusive: 9.2 µM [falling, partial curve, poor fit]",
[O-]/[N+](=C\C=C\c1ccccc1)c1ccccc1,"inconclusive: 8.2 µM [activator, partial curve]",
Cc1cc(C(=O)N/N=C/c2ccc3c(c2)OCO3)c(C)o1,"inconclusive: 23.1 µM [activator, single point]",
COc1ccc2cc3cc(C(=O)Nc4ccc5c(c4)OCCO5)oc3nc2c1,active: 18.4 µM,
Cc1ccc(-c2cn3nc(N4CCCC(C(=O)NCc5ccccc5F)C4)sc3n2)cc1 (configuration not stated),"inconclusive: 6.51 µM [activator, full curve]",
CC1=C(C(=O)OC2CCCC2)C(c2c(F)cccc2Cl)CC(=O)N1 (configuration not stated),"inconclusive: 20.6 µM [falling, single point]",

# Source: PubChem BioAssay AID504444 (National Center for Advancing Translational Sciences (NCATS), 2011)
